Reference: the supplement of paper PMC9015667
Structures can show the parent of a compound that is named as a salt. The list shows a part of the results. Many values rest on one well or one pass, so single values are uncertain.

Key:
Test in all cases: reduction in cell viability relative to untreated/vehicle; higher = more growth inhibition
Details in all cases: 200 nM; 72 h
M229P = test system: M229P (parental melanoma line)
M229R = test system: M229R (matched melanoma line resistant to BRAF inhibitors)
M238P = test system: M238P (parental melanoma line)
M238R = test system: M238R (matched melanoma line resistant to BRAF inhibitors)
M249P = test system: M249P (parental melanoma line)
M249R = test system: M249R (matched melanoma line resistant to BRAF inhibitors)
UACC62P = test system: UACC62P (parental melanoma line)
UACC62R = test system: UACC62R (matched melanoma line resistant to BRAF inhibitors)

Structure (SMILES) | reduction in cell viability (M229P) [%] | reduction in cell viability (M229R) [%] | reduction in cell viability (M238P) [%] | reduction in cell viability (M238R) [%] | reduction in cell viability (M249P) [%] | reduction in cell viability (M249R) [%] | reduction in cell viability (UACC62P) [%] | reduction in cell viability (UACC62R) [%]
CN(C)CCc1ccc(O)cc1 [Hordenine] | < 0 | < 0 | < 0 | < 0 | < 0 | < 0 | 1.8 | < 0
CC[C@H]1CN2CCc3cc(OC)c(OC)cc3[C@@H]2C[C@@H]1C[C@H]1NCCc2cc(OC)c(OC)cc21 [Emetine] | 90.1 | 68.5 | 87 | 87.4 | 96 | 95 | 83.2 | 82.6
Cc1c(C(=O)c2cccc3ccccc23)c2cccc3c2n1[C@H](CN1CCOCC1)CO3 | < 0 | < 0 | < 0 | < 0 | < 0 | < 0 | 0.01 | < 0
COc1cc(OC)c(OC)cc1C=O [Asaraldehyde] | < 0 | < 0 | < 0 | < 0 | < 0 | < 0 | < 0 | < 0
Cc1cc(SCc2sc(-c3ccc(C(F)(F)F)c(F)c3)nc2C)ccc1OCC(=O)O | < 0 | < 0 | < 0 | < 0 | 3.9 | < 0 | 8.51 | < 0
CNCC(O)c1ccc(O)cc1 (stereo not given) [Synephrine] | < 0 | < 0 | < 0 | < 0 | < 0 | < 0 | < 0 | < 0
C/C(=C\c1csc(C)n1)[C@@H]1C[C@@H]2O[C@@H]2CCC[C@H](C)[C@H](O)[C@@H](C)C(=O)C(C)(C)[C@@H](O)CC(=O)O1 [Epothilone A] | 37.4 | 59.4 | 81.8 | 85.9 | 68.4 | 59.2 | 51.2 | 87
CO/C1=C\C(C)=C\[C@@H](C)[C@@H](O)[C@@H](C)C/C(C)=C/C=C/[C@H](OC)[C@@H]([C@@H](C)[C@@H](O)[C@H](C)[C@@]2(O)C[C@@H](O)[C@H](C)[C@@H](C(C)C)O2)OC1=O [Bafilomycin A1] | 53.8 | 57.9 | 54.4 | 45 | 89.1 | 88 | 69 | 92.9
C[N+]1(C)[C@@H]2C[C@@H](OC(=O)[C@H](CO)c3ccccc3)C[C@H]1[C@@H]1O[C@@H]12 [Scopolamine methylbromide] | < 0 | < 0 | < 0 | < 0 | < 0 | 0.66 | 14.4 | < 0
CCCC(C)(COC(N)=O)COC(=O)NC(C)C (stereo not given) [Carisoprodol] | < 0 | < 0 | < 0 | < 0 | < 0 | < 0 | 3.19 | < 0
Cc1cc2c(C(C)C)c(O)c(O)c(C=O)c2c(O)c1-c1c(C)cc2c(C(C)C)c(O)c(O)c(C=O)c2c1O [(-)-Gossypol] | < 0 | < 0 | < 0 | < 0 | < 0 | < 0 | < 0 | < 0
CN1CCN(C(=O)O[C@H]2c3nccnc3C(=O)N2c2ccc(Cl)cn2)CC1 [Eszopiclone] | < 0 | < 0 | < 0 | < 0 | < 0 | 2.15 | < 0 | < 0
CC(C)N(CCNC(=O)CN1CCCC1=O)C(C)C [Pramiracetam hydrochloride] | < 0 | < 0 | < 0 | < 0 | < 0 | 5.82 | < 0 | < 0
CN1[C@@H]2C[C@@H](OC(=O)[C@H](CO)c3ccccc3)C[C@H]1[C@@H]1O[C@@H]12 [Scopolamine] | < 0 | < 0 | < 0 | < 0 | < 0 | < 0 | < 0 | < 0
COc1ccc(CC2NCCc3cc(OC)c(OC)cc32)cc1OC (stereo not given) [Tetrahydropapaverine] | < 0 | < 0 | < 0 | < 0 | < 0 | 6.24 | 2.16 | < 0
Cc1sc2c(c1C)C(c1ccc(Cl)cc1)=N[C@@H](CC(=O)OC(C)(C)C)c1nnc(C)n1-2 | 22.4 | 14.9 | 23.4 | < 0 | 21.3 | 39.1 | 23.9 | 15.2
C[C@]12CCC(=O)C=C1CC[C@@H]1[C@@H]2CC[C@@]2(C)[C@H]1CC[C@]2(C)O [17-Methyltestosterone] | < 0 | < 0 | < 0 | < 0 | < 0 | < 0 | < 0 | < 0
N[C@@H](Cc1ccc(N(CCCl)CCCl)cc1)C(=O)O [Melphalan] | < 0 | < 0 | < 0 | < 0 | < 0 | < 0 | 0.49 | < 0
CCOC(=O)Nc1ccc(NCc2ccc(F)cc2)cc1N [Retigabine] | < 0 | < 0 | < 0 | < 0 | < 0 | < 0 | < 0 | < 0
COCC1(CO)C(=O)C2CCN1CC2 (stereo not given) | < 0 | < 0 | < 0 | < 0 | < 0 | < 0 | < 0 | < 0

Retrieved by compound from the entries so far:
Structure (SMILES) | reduction in cell viability (M229P) [%] | reduction in cell viability (M229R) [%] | reduction in cell viability (M238P) [%] | reduction in cell viability (M238R) [%] | reduction in cell viability (M249P) [%] | reduction in cell viability (M249R) [%] | reduction in cell viability (UACC62P) [%] | reduction in cell viability (UACC62R) [%]
CN1[C@@H]2C[C@@H](OC(=O)[C@H](CO)c3ccccc3)C[C@H]1[C@@H]1O[C@@H]12 [Scopolamine] | < 0 | < 0 | < 0 | < 0 | < 0 | < 0 | < 0 | < 0
CCOC(=O)Nc1ccc(NCc2ccc(F)cc2)cc1N [Retigabine] | < 0 | < 0 | < 0 | < 0 | < 0 | < 0 | < 0 | < 0
CN1CCN(C(=O)O[C@H]2c3nccnc3C(=O)N2c2ccc(Cl)cn2)CC1 [Eszopiclone] | < 0 | < 0 | < 0 | < 0 | < 0 | 2.15 | < 0 | < 0

Following part.

Structure (SMILES) | reduction in cell viability (M229P) [%] | reduction in cell viability (M229R) [%] | reduction in cell viability (M238P) [%] | reduction in cell viability (M238R) [%] | reduction in cell viability (M249P) [%] | reduction in cell viability (M249R) [%] | reduction in cell viability (UACC62P) [%] | reduction in cell viability (UACC62R) [%]
CC(C)C[C@H](CN)CC(=O)O [Pregabalin] | < 0 | < 0 | < 0 | < 0 | < 0 | < 0 | < 0 | < 0
CC1=C(CC/C(C)=C/CCC2=CC[C@H](C3=CC(=O)O[C@H]3O)O[C@H]2O)C(C)(C)CCC1 [Manoalide] | < 0 | < 0 | < 0 | < 0 | < 0 | < 0 | < 0 | < 0
COc1ccc2c(c1)CN(C)CC2c1ccc(Cl)c(Cl)c1 (stereo not given) [Diclofensine] | < 0 | < 0 | < 0 | < 0 | < 0 | < 0 | < 0 | < 0
CC[C@@H](C(N)=O)N1CCCC1=O [Levetiracetam] | < 0 | < 0 | < 0 | < 0 | < 0 | < 0 | 1.09 | < 0
CC(N[C@H]1C[C@@H]1c1ccccc1)c1ccc2c(c1)OCCO2 (stereo not given in full) | < 0 | < 0 | < 0 | < 0 | 0.12 | < 0 | < 0 | < 0
COC1=C[C@@H]2[C@@H]3Cc4ccc(OC)c(O)c4[C@]2(CCN3C)CC1=O [Sinomenine] | < 0 | < 0 | < 0 | < 0 | < 0 | < 0 | < 0 | < 0
CC1=C(O)C(=O)C=C2C1=CC=C1[C@@]2(C)CC[C@@]2(C)[C@@H]3C[C@](C)(C(=O)O)CC[C@]3(C)CC[C@]12C [Tripterin] | < 0 | < 0 | 20.2 | 27.4 | < 0 | < 0 | 6.45 | 4.69
CN(C)NC(=O)CCC(=O)O [Daminozide] | < 0 | < 0 | < 0 | < 0 | < 0 | < 0 | 0.28 | < 0
C[C@]12CC[C@@H]3c4ccc(OC(=O)N(CCCl)CCCl)cc4CC[C@H]3[C@@H]1CC[C@@H]2OP(=O)(O)O [Estramustine phosphate sodium] | < 0 | < 0 | < 0 | < 0 | < 0 | < 0 | < 0 | < 0
C=C[C@H]1CN2CC[C@H]1C[C@@H]2[C@@H](O)c1ccnc2ccccc12 [Cinchonine dihydrochloride] | < 0 | < 0 | < 0 | < 0 | < 0 | < 0 | < 0 | < 0
O=C(O)C(=O)CBr [3-Bromopyruvate] | < 0 | 6.2 | < 0 | < 0 | < 0 | 3.4 | < 0 | < 0
CN1C(=O)CCS(=O)(=O)C1c1ccc(Cl)cc1 (stereo not given) [Chlormezanone] | < 0 | < 0 | < 0 | < 0 | < 0 | < 0 | 7.33 | < 0
Cn1cc(C2=C(c3cn(C4CCN(Cc5ccccn5)CC4)c4ccccc34)C(=O)NC2=O)c2ccccc21 [Enzastaurin] | < 0 | < 0 | < 0 | < 0 | < 0 | 15.1 | < 0 | < 0
COc1ccc2c(c1OC)CN1CCc3cc4c(cc3C1C2)OCO4 (stereo not given) [Tetrahydroberberine] | < 0 | < 0 | < 0 | < 0 | < 0 | < 0 | < 0 | < 0
Cc1nc(-c2ccc(-c3ccc(C(=O)N4CCc5cc6c(cc54)C4(CCN(C)CC4)CO6)cc3)c(C)c2)no1 | < 0 | < 0 | < 0 | < 0 | < 0 | < 0 | < 0 | < 0
CCN1C[C@]2(OC(=O)c3ccccc3NC(C)=O)CC[C@H](OC)[C@@]34[C@@H]2C[C@@H]([C@@H]13)[C@@]1(O)C[C@H](OC)[C@H]2C[C@@H]4[C@]1(O)[C@H]2OC [Lappaconitine] | < 0 | < 0 | < 0 | < 0 | < 0 | < 0 | < 0 | < 0
COc1ccc(Cc2nccc3cc(OC)c(OC)cc23)cc1OC [Papaverine hydrochloride] | < 0 | < 0 | < 0 | < 0 | < 0 | < 0 | < 0 | 18.5
COc1ccc2c(c[n+](C)c3c4cc5c(cc4ccc23)OCO5)c1OC [Chelerythrine chloride] | < 0 | < 0 | 21.1 | < 0 | < 0 | < 0 | 20.5 | < 0
COc1cc([C@@H]2c3cc4c(cc3[C@@H](O)[C@H]3COC(=O)[C@H]23)OCO4)cc(OC)c1O [4-Demethylepipodophyllotoxin] | 31.8 | 31.3 | 72.5 | 69.7 | 63.3 | 45.2 | 50.5 | 85.6
CN[C@H]1CCc2cc(OC)c(OC)c(OC)c2-c2ccc(OC)c(=O)cc21 [Demecolcine] | 24.3 | 39.8 | 43.1 | 34.8 | 52.5 | 47.4 | 37.2 | 75
